PubChem BioAssay AID504764 | Drosophila RNAi Screening Center, 2011
The screen tested about 22,000 reagents; shown is a random part of those with a known target gene and a result. In the full data, 403 (1.9%) got an active call. 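Unnormalised raw counts per well; ratio z-scores behind the hit calls and whether each hit raises or lowers signal are not deposited.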 Entries without a mark were called inactive. A plus sign joins genes that one reagent is predicted to hit. Not given: the amount of reagent.

- Purpose: 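Genome-wide screen for regulators of Notch-driven gene expression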 (primary screen)
- Cells: Drosophila Kc167 cells
- Knock-down reagent: long dsRNA against Drosophila genes
- Timing: about 5 days (4 days dsRNA, then 24 h after transfection)
- Conditions: transfection of constitutively active membrane-tethered Notch lacking the extracellular domain, read 24 h later
- Detection: 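Light from a Notch-responsive E(spl)m3 luciferase reporter under active Notch, with control-promoter and no-Notch reporter wells to normalise; raw counts from paired wells a and b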
- Scale: induced reporter light, run 1, well a and induced reporter light, run 1, well b: higher = more light from the Notch target reporter with active Notch; control promoter light, run 1, well a and control promoter light, run 1, well b: higher = more light from the viral control promoter (cell number, transfection, viability); uninduced reporter light, run 1, well a: higher = more light from the Notch target reporter without active Notch
- Call rule: 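Wells with low control signal or poorly matching duplicates excluded; duplicates averaged; per source plate, z beyond ±2 for induced/control log2 ratio or beyond ±1.8 for induced/uninduced marks a hit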
- Meaning of the calls: active = modifier hit (raised or lowered Notch signal); inactive = not a hit

After knock-down of CG9519 [DRSC20195], the screen gave induced reporter light, run 1, well a = 2.24e5; induced reporter light, run 1, well b = 2.19e5; control promoter light, run 1, well a = 2.62e5; control promoter light, run 1, well b = 2.63e5; uninduced reporter light, run 1, well a = 12450.
Silencing of CheB53b [DRSC05613] resulted in: induced reporter light, run 1, well a = 79845; induced reporter light, run 1, well b = 81245; control promoter light, run 1, well a = 1.26e5; control promoter light, run 1, well b = 1.05e5; uninduced reporter light, run 1, well a = 7505.
After knock-down of CG14282 [DRSC14763], the screen gave induced reporter light, run 1, well a = 1.71e5; induced reporter light, run 1, well b = 1.80e5; control promoter light, run 1, well a = 1.84e5; control promoter light, run 1, well b = 1.67e5; uninduced reporter light, run 1, well a = 13410.
Knock-down of CG11570 [DRSC09844] resulted in: induced reporter light, run 1, well a = 1.07e5; induced reporter light, run 1, well b = 1.07e5; control promoter light, run 1, well a = 1.23e5; control promoter light, run 1, well b = 94370; uninduced reporter light, run 1, well a = 7120.
After knock-down of CG31674 [DRSC03208] the results were induced reporter light, run 1, well a = 38270; induced reporter light, run 1, well b = 34565; control promoter light, run 1, well a = 49070; control promoter light, run 1, well b = 36890; uninduced reporter light, run 1, well a = 4595.
Against CG13724 [DRSC10053], the entry reads induced reporter light, run 1, well a = 3.01e5; induced reporter light, run 1, well b = 2.36e5; control promoter light, run 1, well a = 3.88e5; control promoter light, run 1, well b = 3.42e5; uninduced reporter light, run 1, well a = 12625.
CG8870 [DRSC16452] showed induced reporter light, run 1, well a = 2.26e5; induced reporter light, run 1, well b = 2.75e5; control promoter light, run 1, well a = 2.20e5; control promoter light, run 1, well b = 2.41e5; uninduced reporter light, run 1, well a = 16700.

A few values from the entries so far:
Under “induced reporter light, run 1, well b”, CG14282 [DRSC14763] is entered as 1.80e5
Result of CG9519 [DRSC20195] under “uninduced reporter light, run 1, well a”: 12450

Further reagents follow.
For CG8833 [DRSC11050] the deposit lists induced reporter light, run 1, well a = 93010; induced reporter light, run 1, well b = 1.21e5; control promoter light, run 1, well a = 67970; control promoter light, run 1, well b = 78185; uninduced reporter light, run 1, well a = 8075.
Silencing of Cpr57A + Obp57d [DRSC06708] gave: induced reporter light, run 1, well a = 84110; induced reporter light, run 1, well b = 91915; control promoter light, run 1, well a = 1.68e5; control promoter light, run 1, well b = 2.02e5; uninduced reporter light, run 1, well a = 9030.
Prp6 [DRSC10724] gave induced reporter light, run 1, well a = 1.22e5; induced reporter light, run 1, well b = 1.02e5; control promoter light, run 1, well a = 56685; control promoter light, run 1, well b = 73195; uninduced reporter light, run 1, well a = 6855.
CG15528 [DRSC15065] showed induced reporter light, run 1, well a = 1.29e5; induced reporter light, run 1, well b = 1.14e5; control promoter light, run 1, well a = 2.17e5; control promoter light, run 1, well b = 1.83e5; uninduced reporter light, run 1, well a = 11235.
Silencing of Alr [DRSC19469] came out at: induced reporter light, run 1, well a = 1.13e5; induced reporter light, run 1, well b = 1.21e5; control promoter light, run 1, well a = 1.32e5; control promoter light, run 1, well b = 1.82e5; uninduced reporter light, run 1, well a = 13125.
